Laboratory results taken from PMC9441001.
These are yes or no findings as the source states them, for the method shown. Binding seen in cells or lysates may run through a third protein. Some binding calls cover weakened binding; strength is not graded here. For part of these data: Tags and fused reporters may be left off the sequences shown. Values belong to the molecule of their own block, whether it stands above or below them.

The chains behind the UniProt entries cited, without tags or fusion partners.
UniProt P62258: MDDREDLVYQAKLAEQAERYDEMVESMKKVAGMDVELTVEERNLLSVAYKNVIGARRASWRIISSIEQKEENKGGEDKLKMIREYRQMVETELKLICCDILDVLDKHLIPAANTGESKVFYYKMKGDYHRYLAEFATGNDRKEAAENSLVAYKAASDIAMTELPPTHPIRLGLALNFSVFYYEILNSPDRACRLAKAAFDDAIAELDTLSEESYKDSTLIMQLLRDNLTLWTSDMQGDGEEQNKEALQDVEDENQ
UniProt P63104: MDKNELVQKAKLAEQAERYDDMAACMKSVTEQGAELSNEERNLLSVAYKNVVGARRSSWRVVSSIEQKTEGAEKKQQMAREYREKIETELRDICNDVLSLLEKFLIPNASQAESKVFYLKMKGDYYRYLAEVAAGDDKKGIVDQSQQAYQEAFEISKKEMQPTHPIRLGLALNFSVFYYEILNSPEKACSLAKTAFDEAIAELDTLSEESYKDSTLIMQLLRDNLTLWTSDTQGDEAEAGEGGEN

Tests used:
GST-Kaiso (human) = molecular target: T1, GST-Kaiso (human) (UniProt Q86T24); assay: pull-down; GST-Kaiso and Flag-14-3-3 members co-transfected in MGC803 cells; lysate incubated with Glutathione Sepharose beads at 4 °C overnight, six washes; blots with GST and Flag antibodies
T1 sequence: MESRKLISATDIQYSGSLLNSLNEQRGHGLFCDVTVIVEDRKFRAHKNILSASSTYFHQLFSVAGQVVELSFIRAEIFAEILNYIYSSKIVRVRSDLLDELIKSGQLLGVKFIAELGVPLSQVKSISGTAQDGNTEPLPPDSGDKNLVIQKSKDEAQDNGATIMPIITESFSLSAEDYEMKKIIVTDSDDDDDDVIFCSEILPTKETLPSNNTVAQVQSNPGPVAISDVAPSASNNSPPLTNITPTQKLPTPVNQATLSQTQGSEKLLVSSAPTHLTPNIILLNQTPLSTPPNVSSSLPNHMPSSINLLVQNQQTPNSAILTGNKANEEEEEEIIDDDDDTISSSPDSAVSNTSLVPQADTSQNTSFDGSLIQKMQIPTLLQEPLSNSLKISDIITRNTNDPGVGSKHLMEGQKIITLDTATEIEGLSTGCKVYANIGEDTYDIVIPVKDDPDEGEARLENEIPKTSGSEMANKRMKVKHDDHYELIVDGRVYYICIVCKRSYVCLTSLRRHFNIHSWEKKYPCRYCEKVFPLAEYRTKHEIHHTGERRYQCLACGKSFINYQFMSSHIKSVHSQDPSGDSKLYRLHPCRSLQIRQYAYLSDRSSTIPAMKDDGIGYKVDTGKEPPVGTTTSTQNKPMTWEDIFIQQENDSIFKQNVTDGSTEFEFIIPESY

[1] = molecular target: T2, endogenous Kaiso (human (endogenous in MGC803)) (UniProt Q86T24); assay: co-IP; endogenous proteins, whole cell lysate of MGC803 cells (for P120ctn with and without 14-3-3σ overexpression); anti-Kaiso or other antibodies plus protein A/G Sepharose overnight at 4 °C, six washes; IgG as negative control
T2 sequence: T1 sequence

[2] = molecular target: T2, endogenous Kaiso (human (endogenous in MGC803)); assay: as above; remark: listed apart in the source
[3] = molecular target: T2, endogenous Kaiso (human (endogenous in MGC803)); assay: co-IP; cytoplasmic and nuclear lysates of MGC803 cells with 14-3-3σ overexpression; anti-Kaiso antibody plus protein A/G Sepharose for 8 h at 4 °C

Molecule: endogenous 14-3-3ε (from UniProt P62258 1-255)
- binding [1]: binds

B2: endogenous 14-3-3γ (protein, UniProt P61981 1-247)
chain: MVDREQLVQKARLAEQAERYDDMAAAMKNVTELNEPLSNEERNLLSVAYKNVVGARRSSWRVISSIEQKTSADGNEKKIEMVRAYREKIEKELEAVCQDVLSLLDNYLIKNCSETQYESKVFYLKMKGDYYRYLAEVATGEKRATVVESSEKAYSEAHEISKEHMQPTHPIRLGLALNYSVFYYEIQNAPEQACHLAKTAFDDAIAELDTLNEDSYKDSTLIMQLLRDNLTLWTSDQQDDDGGEGNN
- binding [2]: binds

B4: Flag-14-3-3η (protein, UniProt Q04917 1-246)
chain: MGDREQLLQRARLAEQAERYDDMASAMKAVTELNEPLSNEDRNLLSVAYKNVVGARRSSWRVISSIEQKTMADGNEKKLEKVKAYREKIEKELETVCNDVLSLLDKFLIKNCNDFQYESKVFYLKMKGDYYRYLAEVASGEKKNSVVEASEAAYKEAFEISKEQMQPTHPIRLGLALNFSVFYYEIQNAPEQACLLAKQAFDDAIAELDTLNEDSYKDSTLIMQLLRDNLTLWTSDQQDEEAGEGN
- binding (GST-Kaiso (human)): binds weakly

Results, then the molecule that gave them:

- binding (GST-Kaiso (human)): binds
Molecule: Flag-14-3-3ζ (from UniProt P63104 1-245)

- binding [1]: binds
Molecule: endogenous 14-3-3ζ (from UniProt P63104 1-245)

- binding (GST-Kaiso (human)): binds
Molecule: Flag-14-3-3ε (from UniProt P62258 1-255)

- binding (GST-Kaiso (human)): binds
B1: Flag-14-3-3γ (protein, UniProt P61981 1-247)
chain: B2 chain

- binding [2]: binds
- binding [3]: binds
B3: endogenous P120ctn (protein, UniProt O60716 1-968)
chain: MDDSEVESTASILASVKEQEAQFEKLTRALEEERRHVSAQLERVRVSPQDANPLMANGTLTRRHQNGRFVGDADLERQKFSDLKLNGPQDHSHLLYSTIPRMQEPGQIVETYTEEDPEGAMSVVSVETSDDGTTRRTETTVKKVVKTVTTRTVQPVAMGPDGLPVDASSVSNNYIQTLGRDFRKNGNGGPGPYVGQAGTATLPRNFHYPPDGYSRHYEDGYPGGSDNYGSLSRVTRIEERYRPSMEGYRAPSRQDVYGPQPQVRVGGSSVDLHRFHPEPYGLEDDQRSMGYDDLDYGMMSDYGTARRTGTPSDPRRRLRSYEDMIGEEVPSDQYYWAPLAQHERGSLASLDSLRKGGPPPPNWRQPELPEVIAMLGFRLDAVKSNAAAYLQHLCYRNDKVKTDVRKLKGIPVLVGLLDHPKKEVHLGACGALKNISFGRDQDNKIAIKNCDGVPALVRLLRKARDMDLTEVITGTLWNLSSHDSIKMEIVDHALHALTDEVIIPHSGWEREPNEDCKPRHIEWESVLTNTAGCLRNVSSERSEARRKLRECDGLVDALIFIVQAEIGQKDSDSKLVENCVCLLRNLSYQVHREIPQAERYQEAAPNVANNTGPHAASCFGAKKGKDEWFSRGKKPIEDPANDTVDFPKRTSPARGYELLFQPEVVRIYISLLKESKTPAILEASAGAIQNLCAGRWTYGRYIRSALRQEKALSAIADLLTNEHERVVKAASGALRNLAVDARNKELIGKHAIPNLVKNLPGGQQNSSWNFSEDTVISILNTINEVIAENLEAAKKLRETQGIEKLVLINKSGNRSEKEVRAAALVLQTIWGYKELRKPLEKEGWKKSDFQVNLNNASRSQSSHSYDDSTLPLIDRNQKSDKKPDREEIQMSNMGSNTKSLDNNYSTPNERGDHNRTLDRSGDLGDMEPLKGTTPLMQDEGQESLEEELDVLVLDDEGGQVSYPSMQKI
